According to patent US20100080762A1, “SKIN CARE COMPOSITION” (priority 2006, published 2010):
For at least one compound, name, drawing or mass did not settle the structure.

Experiments:
[1] = system: S100A7/psoriasin; test: Cytokine mix-induced keratinocyte inflammation model, S100A7 mRNA expression (real-time PCR); assay type: cell-based, human; conditions: NHEK
Method: (§1) Two assays were performed to investigate the effect of selected compounds of this invention in an inflammation model with human skin keratinocytes.
(§2) In this model, the association of 3 cytokines that induce a strong synergistic effect on keratinocytes in culture (Boniface K, Diveu C, Morel F, Pedretti N, Froger J, Ravon E, Garcia M, Venereau E, Preisser L, Guignouard E, Guillet G, Dagregorio G, Pene J, Moles J P, Yssel H, Chevalier S, Bernard F X, Gascan H, Lecron J C. Oncostatin M secreted by skin infiltrating T lymphocytes is a potent keratinocyte activator involved in skin inflammation. J Immunol. 2007 Apr. 1;178(7):4615-22), is used to measure the expression of selected markers for keratinocyte inflammation: the antibacterial/chemoattractive markers S100A7/psoriasin and defensin HBD2/4
(§3) Normal human epidermal keratinocytes (NHEK pool K015, 3e passage) were cultured under the following conditions: • Culture: 37° C., 5% CO2 • Culture medium: SFM (Invitrogen 17005075) • Epidermal Growth Factor 0.25 ng/ml and pituitary extract 25 μg/ml • (EGF, EP, Invitrogen 17005075) • Gentamycine 25 μg/ml (Sigma G1397) • Assay medium: SFM without EGF and pituitary extract (Invitrogen 17005075)
(§4) Keratinocytes were pre-cultivated in culture medium. […]
(§5) The incorporation of fluorescence in amplified DNA was measured continuously during the PCR cycles. […]

[2] = system: HBD2; test: Cytokine mix-induced keratinocyte inflammation model, HBD2 mRNA expression (real-time PCR); assay type: cell-based, human; conditions: NHEK
Method: as §1, §2, §3, §4, §5

For `OCCc1ccc(O)c(O)c1` [Hydroxytyrosol, hydroxytyrosol], the “Effect on cytokine mix induction of S100A7 mRNA (in words)” value [1] was “strongly inhibited” and the “Effect on cytokine mix induction of HBD2/4 mRNA (in words)” value [2] was “strongly inhibited”.
